From patent US20200299328A1 (SOUTH CHINA UNIVERSITY OF TECHNOLOGY, priority 2018, published 2020)

Experiment: general procedure: Fmoc solid-phase peptide synthesis; Wang resin; DCC/DMAP for first amino acid; HOBt for remaining couplings
Conditions: whole synthesis, scale of the general procedure 0.0125 mmoL resin

## Pro-Pro-Lys-Asn-Trp
  final HPLC purity: more than 99%
